Source: patent US9802997B2, “Peptides and combination of peptides for use in immunotherapy against various tumors” (immatics biotechnologies GmbH, priority 2015, dated 2017)

Tested on: HLA-A*02 molecules of primary tumor and normal tissue samples
Assay: Identification and relative quantitation of tumor associated peptides presented on the cell surface (label-free LC-MS presentation profiles, tumor vs normal tissues)
Design: species or system human
Conditions: FIG. 1; more than 170 normal tissue samples and 376 cancer samples analysed; 8 kidney cancers, 1 liver cancer, 2 lung cancers, 2 rectal cancers; also 1 kidney cancer cell line

11 (LLDPKTIFL; listed as Homo sapiens) [compound 11]
samples where the peptide was found to be presented: 13 cancer tissue samples
